# Patent publication US20030088307A1, “Potent coatings for stents” (priority 2001, published 2003)
# At least one structure is not confirmed: it was looked up by name or label, or the drawing left a doubt.
# How the values were obtained:
# [1] = tested on: coronary overstretch injury model; assay: coronary overstretch injury model in pigs (restenosis); format: in vivo
# humans = conditions: taken orally; cited from earlier work
smiles,measurement,setting,value
"COc1ccc(/C=C/C(=O)Nc2ccccc2C(=O)O)cc1OC [tranilast, Tranilast]",reduction of restenosis,[1],does not exhibit sufficient potency to be effective to consistently reduce restenosis
same,antiproliferative effects,humans,mildly antiproliferative effects
